Reference: the supplement of paper PMC9254222
Whole data set: some 1,100 compounds, median “Wnt reporter firefly/Renilla luciferase ratio relative to plate median” near 1.1, cut for the highest 2% near 1.6. The list shows a part of the results, in another mix than the full data.

Test system: HEK293T (UBE3A T485A transfected, BAR Wnt reporter)
Test: Wnt reporter firefly/Renilla luciferase ratio relative to plate median (fold (linear ratio)); higher = more Wnt/beta-catenin reporter activation
Conditions: 24 h
How it was run: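 Chemicals were robotically dosed at 0.01–100 uM for 24 h onto HEK293T cells, starting four hours after transfection with a BAR firefly luciferase Wnt reporter, TK-Renilla and an expression plasmid. The cells had been plated at 4500 cells/well in DMEM with 10% FBS at 37°C and 5% CO2. Following a Dual-Glo luciferase readout, the firefly/Renilla ratio served as the Wnt activity measure and raw Renilla as the cell health measure, both median-centred on each plate. Each value is the mean of four biological replicates.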

| SMILES | Wnt reporter firefly/Renilla luciferase ratio (concentration: 0.01 uM) | Wnt reporter firefly/Renilla luciferase ratio (concentration: 0.1 uM) | Wnt reporter firefly/Renilla luciferase ratio (concentration: 1 uM) | Wnt reporter firefly/Renilla luciferase ratio (concentration: 10 uM) | Wnt reporter firefly/Renilla luciferase ratio (concentration: 100 uM) |
| --- | --- | --- | --- | --- | --- |
| CCC(C)C1OC2(C=CC1C)CC1CC(CC=C(C)C(OC3CC(OC)C(OC4CC(OC)C([NH2+]C)C(C)O4)C(C)O3)C(C)C=CC=C3COC4C(O)C(C)=CC(C(=O)O1)C34O)O2.O=C([O-])c1ccccc1 (stereo not drawn) [Emamectin benzoate] | 1.29 | 1.09 | 1.01 | 0.918 | – |
| CC(C)OC(=O)Nc1cccc(Cl)c1 [Chlorpropham] | 1.45 | 1.78 | 1.23 | 1.47 | 0.823 |
| Cc1ccc([N+](=O)[O-])cc1C [1,2-Dimethyl-4-nitrobenzene] | – | 0.844 | 1.17 | 1.19 | 1.42 |
| Cc1ccn2nc(S(=O)(=O)Nc3c(F)cccc3F)nc2n1 [Flumetsulam] | 0.851 | 0.967 | 0.904 | 1.03 | 1.27 |
| CC(C)CCCCCCCOC(=O)c1ccccc1C(=O)OCCCCCCCC(C)C | – | – | – | – | 1.9 |
| C[C@@H]1C[C@@H]([C@H](O)CC2CC(=O)NC(=O)C2)C(=O)[C@@H](C)C1 [Cycloheximide] | – | 1.01 | – | – | – |
| CCN(CC)c1ccccc1 [N,N-Diethylaniline] | – | 1.46 | 1.41 | 1.32 | 0.952 |
| CC(Cc1ccc(OCC(=O)O)cc1)NCC(O)c1csc(C(F)(F)F)n1 (stereo not drawn) | – | 0.978 | 1.07 | 1.02 | 1.31 |
| CC(C)(C)OOC(C)(C)C [Di-tert-butyl peroxide] | – | 1.06 | 1.14 | 0.944 | 1.39 |
| CCOP(=S)(OCC)SCSP(=S)(OCC)OCC [Ethion] | – | 1.15 | 1.01 | 1.26 | 1.16 |
| O=C(Nc1ccccc1-c1ccc(Cl)cc1)c1cccnc1Cl [Boscalid] | 1.57 | 1.25 | 1.1 | 0.956 | 0.876 |
| Cn1sc(Cl)cc1=O [5-Chloro-2-methyl-3(2H)-isothiazolone] | – | 1.28 | 1.07 | 1.07 | 0.458 |
| Oc1ccc2ccc3cccc4ccc1c2c34 [1-Hydroxypyrene] | – | 0.857 | 0.96 | 1.01 | 1.14 |
| C[n+]1ccc(-c2cc[n+](C)cc2)cc1 [Paraquat] | – | – | – | – | 1.77 |
| COc1ccc(O)c(C(C)(C)C)c1 [2-tert-Butyl-4-methoxyphenol] | – | 0.991 | 1.03 | 0.988 | 1.21 |
| O=C(CCl)c1ccccc1 [2-Chloroacetophenone] | – | 1.18 | 0.919 | 1.41 | 0.739 |
| Nc1ccc([N+](=O)[O-])cc1 [4-Nitroaniline] | – | 1.19 | 0.817 | 0.602 | 0.574 |
| COc1nn(CSP(=S)(OC)OC)c(=O)s1 [Methidathion] | 1.41 | 1.74 | 1.33 | 1.56 | 0.818 |
| CCCCCCCCCC[N+](C)(C)CCCCCCCCCC.[Cl-] [Didecyldimethylammonium chloride] | – | 0.908 | 1.09 | 0.905 | 0.0409 |
| COc1ccc(C(c2ccc(OC)cc2)C(Cl)(Cl)Cl)cc1 [Methoxychlor] | 0.858 | 1.13 | 1.12 | 1.25 | 1.04 |
| CCNC(=O)NC(=O)/C(C#N)=N/OC [Cymoxanil] | 1.42 | 1.34 | 1.15 | 1.29 | 1.1 |
| CCCCC(CC)COC(=O)c1ccc(C(=O)OCC(CC)CCCC)c(C(=O)OCC(CC)CCCC)c1 (stereo not drawn) [Tris(2-ethylhexyl) trimellitate] | – | 1.06 | 1.04 | 1.15 | 1.6 |

| SMILES | Wnt reporter firefly/Renilla luciferase ratio (concentration: 0.01 uM) | Wnt reporter firefly/Renilla luciferase ratio (concentration: 0.1 uM) | Wnt reporter firefly/Renilla luciferase ratio (concentration: 1 uM) | Wnt reporter firefly/Renilla luciferase ratio (concentration: 10 uM) | Wnt reporter firefly/Renilla luciferase ratio (concentration: 100 uM) |
| --- | --- | --- | --- | --- | --- |
| CC1(C)CCC(=Cc2ccc(Cl)cc2)C1(O)Cn1cncn1 (stereo not drawn) [Triticonazole] | 1.43 | 1.06 | 1.11 | 1.01 | 0.311 |
| Nc1nc(N)nc(NC2CC2)n1 [Cyromazine] | 1.01 | 1.18 | 0.955 | 1.02 | 1.22 |
| COP(N)(=O)SC (stereo not drawn) [Methamidophos] | 1.56 | 1.43 | 1.1 | 1.31 | 1.41 |
| CCC(C)c1cc([N+](=O)[O-])cc([N+](=O)[O-])c1O (stereo not drawn) [Dinoseb] | – | 0.797 | 0.806 | 0.929 | – |
| COCCOCCO [Diethylene glycol monomethyl ether] | – | 1.19 | 1.21 | 1.31 | 1.43 |
| CN(C)CCO [Dimethylaminoethanol] | – | 1.18 | 1.02 | 0.827 | 1.21 |
| CSc1nnc(C(C)(C)C)c(=O)n1N [Metribuzin] | 1.04 | 0.957 | 1.06 | 0.988 | 1.17 |
| CC1(C)C(C=C(Cl)Cl)C1C(=O)OCc1cccc(Oc2ccccc2)c1 (stereo not drawn) [Permethrin] | 0.82 | 0.873 | 1.11 | 1.19 | 0.865 |
| C=CC1(C)OC(=O)N(c2cc(Cl)cc(Cl)c2)C1=O (stereo not drawn) [Vinclozolin] | 1.39 | 1.47 | 0.951 | 0.95 | 1.02 |
| O=c1ccc(=O)[nH][nH]1 [Maleic hydrazide] | 0.865 | 0.792 | 0.978 | 0.822 | 1.25 |
| CNC(=O)ON=C(SC)C(=O)N(C)C [Oxamyl] | 1.55 | 1.22 | 1.11 | 1.43 | 0.291 |
| ClC1=C(Cl)C2(Cl)C3C(Cl)C=CC3C1(Cl)C2(Cl)Cl (stereo not drawn) [Heptachlor] | – | 0.972 | 1.07 | 1.17 | 1.24 |
| Cc1ccc(N)cc1N [2,4-Diaminotoluene] | – | 1.03 | 1.07 | 0.94 | 0.914 |
| O=C(O)C1(c2ccc3c(c2)OC[C@H](Cc2ccc(-c4ccccc4)cc2)[C@H]3O)CCCC1 | – | 1.02 | 1.24 | 0.898 | 0.378 |
| N#C/N=C1\SCCN1Cc1ccc(Cl)nc1 [Thiacloprid] | 1.13 | 1.15 | 0.937 | 1.04 | 0.822 |
| CN(C)C(=S)[S-].[Na+] [Sodium dimethyldithiocarbamate] | – | 1.22 | 0.816 | 0.751 | 0.926 |
| C#CC(C)(C)NC(=O)c1cc(Cl)cc(Cl)c1 [Propyzamide] | 0.933 | 1.05 | 1.09 | 1.16 | 1.19 |
| COP(=S)(OC)Oc1ccc([N+](=O)[O-])c(C)c1 [Fenitrothion] | 1.53 | 2.01 | 1.26 | 1.43 | 0.976 |
| CN(C)NC(=O)CCC(=O)O [Daminozide] | 0.982 | 1.06 | 0.936 | 1.11 | 1.1 |
| O=P(OCCCl)(OCCCl)OCCCl [Tris(2-chloroethyl) phosphate] | – | 1.03 | 0.971 | 1.12 | 1.19 |
| NS(=O)(=O)C(F)(F)C(F)(F)C(F)(F)C(F)(F)C(F)(F)C(F)(F)C(F)(F)C(F)(F)F | – | 0.978 | 1.01 | 1.33 | 0.586 |
| CCSC(=O)N(CC)C1CCCCC1 [Cycloate] | 1.03 | 0.947 | 1.06 | 1.04 | 1.25 |

A different layout for part of the listing above.
SMILES | Wnt reporter firefly/Renilla luciferase ratio (concentration: 0.01 uM) | Wnt reporter firefly/Renilla luciferase ratio (concentration: 0.1 uM) | Wnt reporter firefly/Renilla luciferase ratio (concentration: 1 uM) | Wnt reporter firefly/Renilla luciferase ratio (concentration: 10 uM) | Wnt reporter firefly/Renilla luciferase ratio (concentration: 100 uM)
N#C/N=C1\SCCN1Cc1ccc(Cl)nc1 [Thiacloprid] | 1.13 | 1.15 | 0.937 | 1.04 | 0.822
CN(C)C(=S)[S-].[Na+] [Sodium dimethyldithiocarbamate] | – | 1.22 | 0.816 | 0.751 | 0.926
C#CC(C)(C)NC(=O)c1cc(Cl)cc(Cl)c1 [Propyzamide] | 0.933 | 1.05 | 1.09 | 1.16 | 1.19
COP(=S)(OC)Oc1ccc([N+](=O)[O-])c(C)c1 [Fenitrothion] | 1.53 | 2.01 | 1.26 | 1.43 | 0.976
CN(C)NC(=O)CCC(=O)O [Daminozide] | 0.982 | 1.06 | 0.936 | 1.11 | 1.1

Remaining list, next part

| SMILES | Wnt reporter firefly/Renilla luciferase ratio (concentration: 0.01 uM) | Wnt reporter firefly/Renilla luciferase ratio (concentration: 0.1 uM) | Wnt reporter firefly/Renilla luciferase ratio (concentration: 1 uM) | Wnt reporter firefly/Renilla luciferase ratio (concentration: 10 uM) | Wnt reporter firefly/Renilla luciferase ratio (concentration: 100 uM) |
| --- | --- | --- | --- | --- | --- |
| CSc1nc(NC(C)C)nc(NC(C)C)n1 [Prometryn] | 0.803 | 0.888 | 1.06 | 1 | 0.599 |
| O.[Br-].[Br-].c1cc[n+]2c(c1)-c1cccc[n+]1CC2 [Diquat dibromide monohydrate] | 1.03 | 0.909 | 0.983 | 1.18 | 1.14 |
| CC(C)=CC1C(C(=O)OCN2C(=O)C3=C(CCCC3)C2=O)C1(C)C (stereo not drawn) [Tetramethrin] | 0.717 | 0.76 | 0.941 | 0.819 | 0.824 |
| CC(=O)N=C1C=CC(=O)C=C1 | 0.925 | 1.17 | 1 | 0.923 | 1.08 |
| Cc1cc(Cl)ccc1OCC(=O)O | 0.747 | 0.754 | 0.938 | 0.821 | 1.07 |
| C=CCOC(=O)C(C)(C)OC(=O)c1cc(-n2c(=O)cc(C(F)(F)F)n(C)c2=O)ccc1Cl [Butafenacil] | 1.33 | 1.03 | 1.12 | 1.14 | 1.46 |
| CS(=O)(=O)c1ccc(C(=O)C2C(=O)CCCC2=O)c([N+](=O)[O-])c1 [Mesotrione] | 1.7 | 1.82 | 0.968 | 1.14 | 1.16 |
| O=C1CCCO1 [4-Butyrolactone] | – | 1.08 | 0.968 | 1.25 | 1.35 |
| Clc1cc(Cl)c(Cl)cc1Cl [1,2,4,5-Tetrachlorobenzene] | – | 1.45 | 1.14 | 1.3 | 1.32 |
| c1ccc(-c2ccccc2)cc1 [Biphenyl] | – | 1.39 | 1.01 | 1.25 | 1.46 |
| Oc1nc(O)nc(O)n1 [Cyanuric acid] | – | 1.32 | 1.15 | 1.08 | 1.55 |
| OCC1CO1 (stereo not drawn) [Glycidol] | – | 1.01 | 1.08 | 1.02 | 1.34 |
| O=c1n(Cl)c(=O)n(Cl)c(=O)n1Cl [Symclosene] | 1.17 | 1.2 | 1.18 | 1.36 | 1.04 |
| CO/C=C(/C(=O)OC)c1ccccc1COc1cccc(C(F)(F)F)n1 [Picoxystrobin] | – | 1.07 | 0.811 | 0.949 | 0.242 |
| CS(=O)CCCCN=C=S (stereo not drawn) [Sulforaphane] | 1.15 | 0.909 | 0.819 | 0.982 | – |
| OCCCBr [3-Bromo-1-propanol] | – | 1.09 | 1.19 | 1.06 | 1.45 |
| C[C@]12C=CC3=C4CCC(=O)C=C4CC[C@H]3[C@@H]1CC[C@@H]2O [17beta-Trenbolone] | – | 1.08 | 1.18 | 0.938 | 0.146 |
| CCC[CH2][Sn]([Cl])([CH2]CCC)[CH2]CCC [Tributyltin chloride] | – | 0.894 | 0.822 | 0.539 | – |
| CCOc1ccc(C(C)(C)COCc2cccc(Oc3ccccc3)c2)cc1 [Etofenprox] | – | 0.976 | 1.03 | 1.19 | 1.44 |
| CCOC(=O)COc1cc(-c2nn(C)c(OC(F)F)c2Cl)c(F)cc1Cl [Pyraflufen-ethyl] | 1.13 | 1.63 | 1.05 | 1.09 | 1.13 |
| CCOP(=S)(OCC)Oc1nc(Cl)n(C(C)C)n1 [Isazofos] | 1.07 | 0.998 | 0.947 | 1.22 | 0.937 |
